Holding throughout (assay): SEC + other: dynamic light scattering; elution profiles on size-exclusion column (Superdex 75, 20 mM Tris-HCl pH 8.0, 300 mM NaCl, 1 mM DTT, 1 mM PMSF); DLS at 40 μM protein in a DynaPro plate reader; both purified
A general note: SEC sorts molecules by how far they enter the pores of the column.

Experiment [1] has as its target EcEndoV-FL-Y73F (E. coli) (UniProt P68739).
Experiment [2] deals with EcEndoV-FL-D183R (E. coli) (UniProt P68739).
The target of experiment [3] is EcEndoV double mutant E140R/S144A (E. coli) (UniProt P68739).
Experiment [4] has as its target EcEndoV-FL-S144A (E. coli) (UniProt P68739).

Substitutions are numbered along the chain they refer to. Names and notes keep the numbering of the source. Results are given in words; binding and its absence hold for the method and conditions named.

B1: EcEndoV-FL-Y73F (enzyme, UniProt P68739 1-223)
chain: MDLASLRAQQIELASSVIREDRLDKDPPDLIAGADVGFEQGGEVTRAAMVLLKYPSLELVEYKVARIATTMPFIPGFLSFREYPALLAAWEMLSQKPDLVFVDGHGISHPRRLGVASHFGLLVDVPTIGVAKKRLCGKFEPLSSEPGALAPLMDKGEQLAWVWRSKARCNPLFIATGHRVSVDSALAWVQRCMKGYRLPEPTRWADAVASERPAFVRYTANQP
As to B1, the binding result in experiment [1] is recorded as “no binding (tested: 40 μM (DLS))”.

B2: EcEndoV-FL-D183R (enzyme, UniProt P68739 1-223)
chain: B1 chain with F73Y, D183R
In the case of B2, the binding entry in experiment [2] was “no binding (tested: 40 μM (DLS))”.

B3: EcEndoV double mutant E140R/S144A (enzyme, UniProt P68739 1-223)
chain: B1 chain with F73Y, E140R, S144A
B3: the binding entry in experiment [3] is listed as “no binding (tested: 40 μM (DLS))”.

B4: EcEndoV-FL-S144A (enzyme, UniProt P68739 1-223)
chain: B1 chain with F73Y, S144A
As for B4, in experiment [4], the binding entry was “no binding (tested: 40 μM (DLS))”.
